Reference: publication PMC5607322
These are yes or no findings as the source states them, for the method shown. Binding seen in cells or lysates may run through a third protein. Some results given as binding are weak or reduced against the parent protein; the word gives no strength. Tags and fused reporters may be left off the sequences shown.

Sequences of proteins named here, by UniProt entry; tags and fusion partners are left off.
UniProt Q182W3: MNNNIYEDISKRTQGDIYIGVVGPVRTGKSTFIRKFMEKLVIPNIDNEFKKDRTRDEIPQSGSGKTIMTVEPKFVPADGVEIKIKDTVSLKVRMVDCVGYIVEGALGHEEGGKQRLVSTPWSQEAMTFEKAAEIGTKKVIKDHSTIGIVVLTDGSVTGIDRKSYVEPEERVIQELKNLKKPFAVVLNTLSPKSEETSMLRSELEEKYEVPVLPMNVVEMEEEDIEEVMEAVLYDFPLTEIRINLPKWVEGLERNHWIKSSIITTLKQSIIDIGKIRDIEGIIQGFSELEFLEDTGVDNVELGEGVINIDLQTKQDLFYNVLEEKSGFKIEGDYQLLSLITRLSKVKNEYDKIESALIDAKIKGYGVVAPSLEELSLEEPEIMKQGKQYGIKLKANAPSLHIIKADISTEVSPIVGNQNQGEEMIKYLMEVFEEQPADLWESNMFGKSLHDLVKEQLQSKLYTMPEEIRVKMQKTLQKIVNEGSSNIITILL

T1: B. subtilis SpoVM-CPD-His6 (Bacillus subtilis) (UniProt P37817)
T1 sequence: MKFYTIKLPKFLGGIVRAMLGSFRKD


Target: T1, B. subtilis SpoVM-CPD-His6 (Bacillus subtilis)
Assay: pull-down

Molecule | binding
HA-tagged C. difficile SpoIVA (from UniProt Q182W3 1-491) | binds
HA-tagged B. subtilis SpoIVA (protein, UniProt P35149 1-492) MEKVDIFKDIAERTGGDIYLGVVGAVRTGKSTFIKKFMELVVLPNISNEADRARAQDELPQSAAGKTIMTTEPKFVPNQAMSVHVSDGLDVNIRLVDCVGYTVPGAKGYEDENGPRMINTPWYEEPIPFHEAAEIGTRKVIQEHSTIGVVITTDGTIGDIARSDYIEAEERVIEELKEVGKPFIMVINSVRPYHPETEAMRQDLSEKYDIPVLAMSVESMRESDVLSVLREALYEFPVLEVNVNLPSWVMVLKENHWLRESYQESVKETVKDIKRLRDVDRVVGQFSEFEFIESAGLAGIELGQGVAEIDLYAPDHLYDQILKEVVGVEIRGRDHLLELMQDFAHAKTEYDQVSDALKMVKQTGYGIAAPALADMSLDEPEIIRQGSRFGVRLKAVAPSIHMIKVDVESEFAPIIGTEKQSEELVRYLMQDFEDDPLSIWNSDIFGRSLSSIVREGIQAKLSLMPENARYKLKETLERIINEGSGGLIAIIL | binds
